# ± gives the standard deviation. The entries are a selection whose mix differs from that of the whole data set. Many of these values have a large error.
# System: MILI (PIWIL2) piRISC loaded with piRNA #2 (26 nt)
# Experiment: pre-steady-state target cleavage rate (min^-1); MIWI and MILI are mouse PIWI proteins and EfPiwi is from a freshwater sponge; tags in brackets are library labels; higher = faster piRNA-guided slicing of the target
# Conditions: guide: piRNA #2 5'p-UUAGGUAACCCAGUAGAUCCAGAGGA; auxiliary factor: 500 nM mouse GTSF1
# Outline: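 The method was Cleave-'n-Seq, in which uncleaved targets from a transcribed, DNA-blocked target RNA library were sequenced after exposure to active affinity-purified piRISC carrying one synthetic guide, with or without GTSF1 partner protein. Reactions contained 0.1 nM library, 1 nM piRISC and, where present, 500 nM GTSF1 in HEPES–potassium acetate buffer at 33 °C for 0–8 or 0–960 min. Reads were normalised to depth and to weakly complementary targets, three trials were pooled, and k3 was capped at 0.0001 min^-1. The pre-steady-state cleavage rate came from a burst-and-steady-state fit.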
row,Sequence,pre-steady-state target cleavage rate
1,CUUAAGGAGACCUAGAUGUCCCUUACCUAA,0.000437 ± 0.022
2,CUUAAGGAGACGAUCUACUGGGGUUACCUAA,0.00224 ± 0.0045
3,CUUAUCCUCUGGAUCUACUGGGUAUCCUAA,0.0336 ± 0.014
4,CUUAAGGAGACGAUCUACUGUGUUACCUAA,0.00088 ± 0.013
5,CUUAAGGAGACCUUCUACUGGGUUACGUUA,0.00055 ± 0.015
6,CUUAAGGACAGGAUCUACUGGGAUACCUAA,0.00261 ± 0.0087
7,CUUAAGGAGAGGAUCUAUUGGGUUACCUAA,0.00181 ± 0.0055
8,CUUAAGGACAGGAUCUACUGGGUUUCCUAA,0.00491 ± 0.0063
9,CUUAAGGAGACCCUCUACUGGGUUACCUAA,0.000648 ± 0.012
10,CUUAAGGAGACCUUCAUCUGGGUUACCUAA,0.000868 ± 0.01
11,CUUAAGGAGAGGAUCUACUGGGAUUACCUAA,0.00243 ± 0.005
12,CUUAAGGAGAGGAACUACUGGGAUACCUAA,0.000293 ± 0.024
13,CUUAAGGAGACGAUCUACUGGGUUACCGAA,0.000704 ± 0.012
14,CUUAAGGAGAGGAUCUACUGCGGUUACCUAA,0.000283 ± 0.015
15,CUUAAGGAGACCUAGUACUGGGUUACCAA,0.000186 ± 0.038
16,CUUAAGGAGACCAUCUUACUGGGUUACCUAA,0.000706 ± 0.015
17,CUUAAGGAGUGGAUCUACGGGUUACCUAA,0.0019 ± 0.0046
18,CUUAACCUCUGGAUCUUCUGGCUUACCUAA,0.000284 ± 0.02
19,CUUAAGGAGACGACUACUGGGUUACCUAA,0.000637 ± 0.0092
20,CUUAAGGAGAGGUUCUACUGGGUAACCUAA,0.00387 ± 0.0047
21,CUUAAGGUCUGCAUCUACUGGCUUACCUAA,0.000822 ± 0.015
22,CUUAAGGAGACCUUCUUCUGGGUAACCUAA,0.000662 ± 0.011
23,CUUAAGGAGACCUUCUACUGCGUUACGUAA,0.000901 ± 0.012
24,CUUAAGGAGACGAUCUAGUGGGUUACCAAA,0.000859 ± 0.0076

# Already shown: an excerpt of the list.
row,Sequence,pre-steady-state target cleavage rate
6,CUUAAGGACAGGAUCUACUGGGAUACCUAA,0.00261 ± 0.0087
7,CUUAAGGAGAGGAUCUAUUGGGUUACCUAA,0.00181 ± 0.0055

# (continued)

row,Sequence,pre-steady-state target cleavage rate
1,CUUAAGGAGACCUACUUGAGGGUUACCUAA,0.00067 ± 0.013
2,CUUAAGGACUGGAUCUACACCGUUACCUAA,0.00215 ± 0.0075
3,CUUAAGCUCUGGAUCUACUGAGGUUACCUAA,0.00136 ± 0.007
4,CUUAAGGAGAGGAUCUACUGGGUAUCCUAA,0.000984 ± 0.01
5,CUUAUCGUCUGGAUCUACUGGCUUACCUAA,0.000366 ± 0.027
6,CUUAAGGAGUGGAUCUAUGGGUUACCUAA,0.00216 ± 0.0035
7,CUUAAGGAGACGAAGUACUGGGUUACCUAA,0.000256 ± 0.01
8,CUUAAGGAGACCUAGAUCUGGGAUUACCUAA,0.000349 ± 0.02
9,CUUAAGGAGACCAUCUACUGGGUAACCAAA,0.000281 ± 0.017
10,CUUAACCUCUGGAUCUACUGGGAUACCUUA,0.0634 ± 0.023
11,CUUAAGGAGACCUAGAUGACGGUCUACCUAA,0.000449 ± 0.023
12,CUUAAGGAGACCACCUACUGGGUUACCUAA,0.000767 ± 0.012
13,CUUAAGGAGACCUAGAUGAGUGUUACCUAA,0.000264 ± 0.016
14,CUUAAGGAGUCGAUCUACUGGGUUACCUUA,0.00201 ± 0.0069
15,CUUAACCUCUGGACCUACUGGGUUACCUAA,0.0796 ± 0.023
16,CUUAAGGAGACCUAGUACAGGGUUAGCUAA,0.000109 ± 0.07
17,CUUAAGGAGACGAUCUACCUGGGUUACCUAA,0.000758 ± 0.014
18,CUUAAGGAGUGGAUCUACUGGGUUACGAAA,0.00127 ± 0.0097
19,CUUAAGGAGAGGAUCUACUUGGGUUACCUAA,0.00122 ± 0.0062
20,CUUAAGGAGACCUUCUACUGGGGUUACCUAA,0.000567 ± 0.017
21,CUUAAGGAGAGGAUACUACUGGGUUACCUAA,0.00123 ± 0.0062
22,CUUAAGGAGUGCAUCAACUGGGUUACCUAA,0.000547 ± 0.024
23,CUUAAGGAGACCUUGUACUGGGUUACCUAA,0.000511 ± 0.015
24,CUUAAGGAGAGGAUGUACUGGGUUACCUUA,0.00254 ± 0.0084

# Part of the list above, reformatted.
row	Sequence	pre-steady-state target cleavage rate
6	CUUAAGGAGUGGAUCUAUGGGUUACCUAA	0.00216 ± 0.0035
15	CUUAACCUCUGGACCUACUGGGUUACCUAA	0.0796 ± 0.023

# Next part:

row,Sequence,pre-steady-state target cleavage rate
1,CUUAAGGACUGGAUGUACUGGGUUACCAAA,0.00605 ± 0.0089
2,CUUAAGGAGACCUUUACUGGGUUACCUAA,0.000628 ± 0.018
3,CUUAAGGAGACGAUCUACUGGGUUAGCCUAA,0.00184 ± 0.0078
4,CUUAAGGAGACCAUCAACUGGGUUACCUAA,0.000798 ± 0.0094
5,CUUAAGGACUGGUACUACUGGGUUACCUAA,0.000773 ± 0.039
6,CUUAAGGAGACCUAGAUCUGGGUUACGUAA,0.000263 ± 0.024
7,CUUAAGCUCUGGAUCUACUCGGUUACGUAA,0.000454 ± 0.02
8,CUUAAGGAGAGGAUCUACUGGCUUUCCUAA,0.000158 ± 0.042
9,CUUAAGGAGACGAUCUUCUGGGUUACCUAA,0.00291 ± 0.003
10,CUUAAGGAGACCUACUACUGGGUUCCCUAA,0.000275 ± 0.023
11,CUUAAGCACUGGAUCUACUGGCUUACCUAA,0.00121 ± 0.0076
12,CUUAAGCUCAGGAUCUACUGGCUUACCUAA,0.00106 ± 0.015
13,CUUAAGGUCUGGAUCUACUGGGAUACCAAA,0.000905 ± 0.011
14,CUUAAGGAGAGGUUCUAGUGGGUUACCUAA,0.00235 ± 0.0045
15,CUUAAGGAGACCUAGAUCUGGGUUACCCAA,0.000403 ± 0.025
16,CUUAAGGAGAGGAACUUCUGGGUUACCUAA,0.000314 ± 0.022
17,CUUAAGGAGACCUUCUACUGGCGUUACCUAA,0.000165 ± 0.038
18,CUUAAGGAGACCAUCUACUGUGGUUACCUAA,0.000369 ± 0.027
19,CUUAAGGAGACGUACUACUGGGUUACCUAA,0.00031 ± 0.015
20,CUUAAGGACUCGAUCUACUGGGUUACGUAA,0.00124 ± 0.0096
21,CUUAAGGAGACGGUCUACUGGGUUACCUAA,0.00053 ± 0.012
22,CUUAAGGAGAGGAUCUACUGGGAUUCCUAA,0.000211 ± 0.024
23,CUUAAGCUCUGGAUCUUACUGGGUUACCUAA,0.000797 ± 0.0086
24,CUUAAGGAGAGGAUCUACUGGGUUGACCUAA,0.000665 ± 0.016
